The supplement of paper PMC10849652
This is one part of the list.

Protein sequences, listed by entry. Tags and fused reporters are not part of them. Lines headed by an entry give the natural chain unless they say otherwise; changes in a name come on top.
UniProt Q96S82: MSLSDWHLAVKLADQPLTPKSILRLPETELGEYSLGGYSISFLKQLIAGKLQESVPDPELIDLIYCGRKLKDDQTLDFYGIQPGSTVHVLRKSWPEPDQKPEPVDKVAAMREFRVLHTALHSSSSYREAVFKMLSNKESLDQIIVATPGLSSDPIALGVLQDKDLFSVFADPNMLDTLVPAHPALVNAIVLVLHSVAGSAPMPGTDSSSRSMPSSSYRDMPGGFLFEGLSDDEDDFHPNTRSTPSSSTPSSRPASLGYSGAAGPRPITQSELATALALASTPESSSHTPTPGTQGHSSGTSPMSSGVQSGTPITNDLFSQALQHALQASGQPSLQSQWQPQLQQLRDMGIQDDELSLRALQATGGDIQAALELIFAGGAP
UniProt Q9BSL1: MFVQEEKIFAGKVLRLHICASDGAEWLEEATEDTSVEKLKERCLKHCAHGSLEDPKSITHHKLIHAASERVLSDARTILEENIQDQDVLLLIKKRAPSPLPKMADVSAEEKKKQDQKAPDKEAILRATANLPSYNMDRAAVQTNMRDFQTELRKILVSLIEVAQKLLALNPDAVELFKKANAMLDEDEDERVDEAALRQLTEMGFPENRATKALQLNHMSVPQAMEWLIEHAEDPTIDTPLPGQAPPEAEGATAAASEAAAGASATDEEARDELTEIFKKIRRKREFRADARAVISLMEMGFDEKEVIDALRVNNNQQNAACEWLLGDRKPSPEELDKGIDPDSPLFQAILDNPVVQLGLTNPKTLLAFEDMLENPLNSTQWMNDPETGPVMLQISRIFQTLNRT
UniProt Q96LJ8: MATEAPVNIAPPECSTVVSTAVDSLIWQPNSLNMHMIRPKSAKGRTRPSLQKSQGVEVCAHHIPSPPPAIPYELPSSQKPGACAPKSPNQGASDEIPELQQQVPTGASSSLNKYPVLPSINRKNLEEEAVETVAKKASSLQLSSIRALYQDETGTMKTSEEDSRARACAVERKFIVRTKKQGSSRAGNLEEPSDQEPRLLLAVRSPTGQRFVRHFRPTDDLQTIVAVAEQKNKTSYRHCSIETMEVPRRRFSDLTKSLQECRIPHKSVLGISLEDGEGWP
UniProt Q9GZX9: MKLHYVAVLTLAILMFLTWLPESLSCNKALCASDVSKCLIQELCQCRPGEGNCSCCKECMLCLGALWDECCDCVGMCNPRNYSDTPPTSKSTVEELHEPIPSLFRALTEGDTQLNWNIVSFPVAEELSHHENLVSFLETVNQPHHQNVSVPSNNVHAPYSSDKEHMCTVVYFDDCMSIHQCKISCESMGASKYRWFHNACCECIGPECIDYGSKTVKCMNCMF
UniProt Q5T6F2: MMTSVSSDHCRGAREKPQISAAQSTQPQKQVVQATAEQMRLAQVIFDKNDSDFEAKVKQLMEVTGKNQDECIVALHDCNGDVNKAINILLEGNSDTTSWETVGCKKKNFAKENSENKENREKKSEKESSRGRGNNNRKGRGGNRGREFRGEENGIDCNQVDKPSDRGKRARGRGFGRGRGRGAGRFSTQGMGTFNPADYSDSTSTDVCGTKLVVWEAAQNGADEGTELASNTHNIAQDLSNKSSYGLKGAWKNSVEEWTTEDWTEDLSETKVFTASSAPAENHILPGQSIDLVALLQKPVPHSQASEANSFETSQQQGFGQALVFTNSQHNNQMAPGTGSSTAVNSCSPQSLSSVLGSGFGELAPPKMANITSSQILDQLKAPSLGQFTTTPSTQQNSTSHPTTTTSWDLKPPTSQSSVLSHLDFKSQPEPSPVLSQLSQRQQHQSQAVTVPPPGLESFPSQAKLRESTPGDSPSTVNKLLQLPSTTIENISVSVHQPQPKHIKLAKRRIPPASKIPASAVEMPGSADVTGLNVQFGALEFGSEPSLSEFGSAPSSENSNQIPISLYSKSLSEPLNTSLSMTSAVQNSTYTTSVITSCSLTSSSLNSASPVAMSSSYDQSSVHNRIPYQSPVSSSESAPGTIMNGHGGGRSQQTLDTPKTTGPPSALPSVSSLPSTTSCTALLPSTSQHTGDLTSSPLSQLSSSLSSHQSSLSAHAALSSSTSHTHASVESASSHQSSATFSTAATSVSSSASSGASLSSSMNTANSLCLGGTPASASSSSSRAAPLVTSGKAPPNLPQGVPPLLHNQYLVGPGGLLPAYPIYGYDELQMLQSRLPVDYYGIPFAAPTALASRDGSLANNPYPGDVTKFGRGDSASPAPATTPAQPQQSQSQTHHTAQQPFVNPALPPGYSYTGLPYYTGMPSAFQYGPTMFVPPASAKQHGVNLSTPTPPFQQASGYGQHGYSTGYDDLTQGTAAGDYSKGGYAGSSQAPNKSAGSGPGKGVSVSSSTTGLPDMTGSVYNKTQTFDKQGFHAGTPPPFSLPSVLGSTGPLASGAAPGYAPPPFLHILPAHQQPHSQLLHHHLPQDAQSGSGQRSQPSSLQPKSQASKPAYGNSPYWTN
UniProt Q96B02: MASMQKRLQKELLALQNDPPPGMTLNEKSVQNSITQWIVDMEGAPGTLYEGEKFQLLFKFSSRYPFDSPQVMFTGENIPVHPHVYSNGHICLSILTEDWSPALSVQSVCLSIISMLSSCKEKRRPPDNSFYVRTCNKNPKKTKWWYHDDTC
UniProt Q9BSJ2, whole entry, looked up: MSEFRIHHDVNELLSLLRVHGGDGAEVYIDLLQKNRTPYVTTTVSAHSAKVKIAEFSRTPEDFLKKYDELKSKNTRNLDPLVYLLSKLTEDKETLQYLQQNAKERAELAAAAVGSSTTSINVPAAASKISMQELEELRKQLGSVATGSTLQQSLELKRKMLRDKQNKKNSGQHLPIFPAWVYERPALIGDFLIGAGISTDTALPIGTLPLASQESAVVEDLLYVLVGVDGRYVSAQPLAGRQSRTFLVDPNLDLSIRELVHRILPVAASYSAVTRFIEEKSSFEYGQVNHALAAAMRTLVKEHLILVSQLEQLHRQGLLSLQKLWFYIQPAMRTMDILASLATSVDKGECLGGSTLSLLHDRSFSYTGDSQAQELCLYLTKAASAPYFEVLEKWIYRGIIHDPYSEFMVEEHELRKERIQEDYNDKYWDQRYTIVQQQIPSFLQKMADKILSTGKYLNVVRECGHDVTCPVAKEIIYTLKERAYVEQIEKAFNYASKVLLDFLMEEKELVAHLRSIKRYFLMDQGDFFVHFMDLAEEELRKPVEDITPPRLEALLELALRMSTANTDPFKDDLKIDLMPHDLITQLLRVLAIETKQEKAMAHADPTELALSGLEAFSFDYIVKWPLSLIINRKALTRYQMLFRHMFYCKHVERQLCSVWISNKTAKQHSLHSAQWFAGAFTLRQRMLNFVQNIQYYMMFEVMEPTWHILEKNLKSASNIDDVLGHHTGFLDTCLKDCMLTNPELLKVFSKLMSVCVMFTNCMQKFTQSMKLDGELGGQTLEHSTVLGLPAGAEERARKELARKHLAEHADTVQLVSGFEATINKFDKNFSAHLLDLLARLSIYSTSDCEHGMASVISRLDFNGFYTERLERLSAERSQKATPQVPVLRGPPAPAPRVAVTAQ
UniProt Q5TAX3: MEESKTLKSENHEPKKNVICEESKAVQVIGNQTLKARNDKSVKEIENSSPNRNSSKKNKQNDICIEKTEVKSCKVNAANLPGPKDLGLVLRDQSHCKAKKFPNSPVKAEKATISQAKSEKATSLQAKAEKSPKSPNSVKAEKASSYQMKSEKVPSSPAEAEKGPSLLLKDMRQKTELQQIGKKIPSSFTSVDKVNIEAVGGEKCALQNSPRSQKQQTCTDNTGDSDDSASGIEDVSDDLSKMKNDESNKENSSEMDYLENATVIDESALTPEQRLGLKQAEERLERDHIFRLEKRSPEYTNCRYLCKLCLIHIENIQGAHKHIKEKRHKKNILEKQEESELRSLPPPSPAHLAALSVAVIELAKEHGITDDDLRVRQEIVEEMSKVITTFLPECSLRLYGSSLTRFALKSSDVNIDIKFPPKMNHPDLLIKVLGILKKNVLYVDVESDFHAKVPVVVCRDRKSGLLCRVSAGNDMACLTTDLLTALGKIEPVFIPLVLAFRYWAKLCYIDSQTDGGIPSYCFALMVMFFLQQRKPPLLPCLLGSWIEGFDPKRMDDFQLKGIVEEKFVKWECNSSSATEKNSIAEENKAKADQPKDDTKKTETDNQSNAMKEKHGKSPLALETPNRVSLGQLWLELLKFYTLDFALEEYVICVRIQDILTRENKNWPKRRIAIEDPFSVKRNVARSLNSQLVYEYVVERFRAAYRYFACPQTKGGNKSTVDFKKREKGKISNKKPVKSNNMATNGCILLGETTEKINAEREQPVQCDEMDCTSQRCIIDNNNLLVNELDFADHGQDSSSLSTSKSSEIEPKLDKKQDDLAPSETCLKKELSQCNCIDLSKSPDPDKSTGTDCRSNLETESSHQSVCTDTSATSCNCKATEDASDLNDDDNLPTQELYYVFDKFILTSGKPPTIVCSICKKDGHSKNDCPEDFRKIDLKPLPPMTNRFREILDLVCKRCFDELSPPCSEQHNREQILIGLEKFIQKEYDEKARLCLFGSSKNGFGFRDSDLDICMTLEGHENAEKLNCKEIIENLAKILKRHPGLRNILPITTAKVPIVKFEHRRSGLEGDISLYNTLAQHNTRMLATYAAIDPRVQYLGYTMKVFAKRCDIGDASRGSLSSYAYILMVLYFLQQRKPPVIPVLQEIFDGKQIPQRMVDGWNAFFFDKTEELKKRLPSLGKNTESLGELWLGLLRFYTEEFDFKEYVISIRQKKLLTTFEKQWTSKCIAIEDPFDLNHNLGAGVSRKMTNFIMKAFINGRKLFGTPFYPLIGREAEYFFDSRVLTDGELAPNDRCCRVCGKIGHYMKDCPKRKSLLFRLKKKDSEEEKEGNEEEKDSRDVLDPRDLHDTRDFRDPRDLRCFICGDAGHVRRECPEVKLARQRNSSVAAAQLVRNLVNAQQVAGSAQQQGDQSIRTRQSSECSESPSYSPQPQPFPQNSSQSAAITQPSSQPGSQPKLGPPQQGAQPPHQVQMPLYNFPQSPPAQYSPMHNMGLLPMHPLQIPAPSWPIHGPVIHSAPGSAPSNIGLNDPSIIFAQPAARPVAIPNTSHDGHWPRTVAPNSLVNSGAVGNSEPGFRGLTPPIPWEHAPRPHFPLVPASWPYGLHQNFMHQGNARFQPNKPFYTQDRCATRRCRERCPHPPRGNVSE

Assays:
Assay in all cases: log2 fold change, soluble protein after heating vs DMSO (PISA); higher = thermal stabilisation; K562 lysate, 10 uM; active = over 0.2 and 3.5 SD of the protein, either way, in both replicates (recomputed)
[1] = compound: C1=CC=C(C=C1)[C@H](COC2=CC3=C(C=C2)NC(=O)N3)NC(=O)C4=CC=CN(C4=O)CC5=CC(=C(C=C5)F)F
Procedure, shortened: (§1)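 The values are log-two fold changes in thermal stability compared with solvent controls and come from duplicates. They were obtained by TMTpro 16plex LC-MS/MS, with channel sums equalised, on the supernatant after 21,000xg for 90 min. That supernatant came from crude K562 extract at 1 mg/mL protein treated with 10 μM compound for 30 min, heated for 3 min across 48°C-58°C, pooled and brought to 0.5% NP-40 at 4°C.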

[2] = compound: CC1=C(SC2=C1C(=N[C@H](C3=NN=C(N32)C)CC(=O)N)C4=CC=C(C=C4)Cl)C
Procedure, shortened: as §1

[3] = compound: CC1=C2C(=CC=C1)N=C(N(C2=O)C3=CC=CC=C3C)CN4C=NC5=C(N=CN=C54)N
Procedure, shortened: as §1

[4] = compound: Cc1sc2c(c1C)C(c1ccc(Cl)cc1)=N[C@@H](CC(=O)OC(C)(C)C)c1nnc(C)n1-2
Procedure, shortened: as §1

[5] = compound: c1ccc([C@@H]2C[C@H]2NC2CCNCC2)cc1
Procedure, shortened: as §1

Measured: log2 fold change

UBL7 (UniProt Q96S82)
inactive: [1] -0.062 | [2] -0.005 | [3] -0.036 | [4] 0.014 | [5] 0.053

UBAC1 (UniProt Q9BSL1)
inactive: [1] 0.014 | [2] -0.025 | [3] -0.024 | [4] -0.045 | [5] 0.021

UBA6
inactive: [1] -0.008 | [2] -0.026 | [3] 0.016 | [4] 0.01 | [5] 0.009

UBXN10 (UniProt Q96LJ8)
inactive: [1] -0.032 | [2] 0.048 | [3] 0.056 | [4] 0.095 | [5] 0.022

TWSG1 (UniProt Q9GZX9)
inactive: [1] 0.063 | [2] -0.095 | [3] -0.015 | [4] 0.086 | [5] 0.075

UBAP2 (UniProt Q5T6F2)
inactive: [1] -0.019 | [2] -0.003 | [3] -0.008 | [4] -0.022 | [5] -0.119

UBE2W isoform 3 (UniProt Q96B02)
inactive: [1] -0.13 | [2] 0.063 | [3] -0.199

Quoted from the results shown (two entries):
UBAP2 (UniProt Q5T6F2)
inactive: [1] -0.019 | [2] -0.003 | [3] -0.008 | [4] -0.022 | [5] -0.119

UBE2W isoform 3 (UniProt Q96B02)
inactive: [1] -0.13 | [2] 0.063 | [3] -0.199

Carrying on.

TUBGCP2 isoform 4 (UniProt Q9BSJ2)
inactive: [1] 0.009 | [2] -0.015 | [3] 0.035 | [4] 0.018 | [5] 0.097

TUT4 (UniProt Q5TAX3)
inactive: [1] -0.032 | [2] -0.024 | [3] 0.035 | [4] 0.009 | [5] -0.021
